{
  "source": "the supplement of paper PMC9549374",
  "note": "This is one part of the list. Cut-off read from the data, not from the text of the source: active = 2-fold of DMSO or more and inactive = the rest. Single values of this set are uncertain. Some low values are a fixed figure set by the source, not a measured ratio.",
  "data": [
    {"test_system": "CM7/1-hgem mouse ES cell-derived cardiomyocytes", "assay": "maximal number of mAG-hGem(1/110)-positive cardiomyocytes over 96 h, fold-change vs DMSO; higher = more cardiomyocyte cell cycle activity", "details": "1 µM; 96 (max over 12 h time points) h", "values": [
      {"molecule": "COC(=O)c1c(C)cc(OC(=O)c2c(C)cc(O)c(C=O)c2O)c(C)c1O", "maximal number": "inactive: 0"},
      {"molecule": "COC(=O)[C@H]1[C@H]2C[C@H]3c4[nH]c5ccccc5c4CCN3C[C@@H]2CC[C@@H]1O", "maximal number": "inactive: 1"},
      {"molecule": "COC(=O)C[C@H]1C(C)(C)[C@@H](OC(C)=O)[C@@H]2CC3C4CC(=O)O[C@@H](c5ccoc5)[C@]4(C)CCC3[C@@]1(C)C2=O", "note": "(some centres not stated)", "maximal number": "inactive: 1"},
      {"molecule": "COc1cc(C)c(C(=O)Oc2cc(C)c(C(=O)O)c(O)c2C)c(OC)c1C", "maximal number": "inactive: 0"},
      {"molecule": "CCCc1nn(C)c2c(=O)[nH]c(-c3cc(S(=O)(=O)N4CCN(C)CC4)ccc3OCC)nc12", "maximal number": "inactive: 1"},
      {"molecule": "CC(=O)/C(=C\\c1ccccc1)CC(=O)O", "maximal number": "inactive: 1"},
      {"molecule": "O=C1c2ccccc2C(=O)C1c1ccc(C(F)(F)F)cc1", "maximal number": "inactive: 1"},
      {"molecule": "CNC(=N)NCCC[C@H](N)C(=O)O", "maximal number": "inactive: 1"},
      {"molecule": "O=S(=O)([O-])NC1CCCCC1.[Na+]", "maximal number": "inactive: 1"},
      {"molecule": "COc1ccc(Cc2cnc(N)nc2N)cc1OC", "maximal number": "inactive: 1"},
      {"molecule": "CC1=Nc2ccc(Cl)cc2S(=O)(=O)N1", "maximal number": "inactive: 1"},
      {"molecule": "CC(C)CCCC(C)C1CCC2C3CCC4CC(O)CCC4(C)C3CCC12C", "note": "(stereo not drawn) [5alpha-CHOLESTANOL]", "maximal number": "inactive: 1"},
      {"molecule": "COC1=CC(=O)C(O)=C/C1=C\\C=C\\c1ccccc1", "maximal number": "inactive: 0.5"},
      {"molecule": "C#CCN[C@@H]1CCc2ccccc21", "maximal number": "inactive: 1"},
      {"molecule": "OCC(O)C(O)C(O)C(O)C(O)CO", "note": "(configuration not stated)", "maximal number": "inactive: 0.5"},
      {"molecule": "NCCC(=O)N[C@@H](Cc1c[nH]cn1)C(=O)O", "maximal number": "inactive: 1"},
      {"molecule": "Cc1nccn1CC1CCc2c(c3ccccc3n2C)C1=O", "note": "(configuration not stated)", "maximal number": "inactive: 1"},
      {"molecule": "C[C@H]1C(=O)CC[C@@H]2[C@]1(C)CC[C@H]1[C@@]2(C)CC[C@@]2(C)[C@@H]3CC(C)(C)CC[C@]3(C)CC[C@]12C", "maximal number": "inactive: 0"},
      {"molecule": "O=S(=O)(O)CCSSCCS(=O)(=O)O", "maximal number": "inactive: 0"},
      {"molecule": "CC1(C)[C@H](C(=O)O)N2C(=O)C[C@H]2S1(=O)=O", "maximal number": "inactive: 1"},
      {"molecule": "O=C1C=C2CC3(O)COc4c(ccc(O)c4O)C3=C2C=C1O", "note": "(configuration not stated)", "maximal number": "inactive: 1"},
      {"molecule": "COc1ccc([C@@H]2Sc3ccccc3N(CCN(C)C)C(=O)[C@@H]2OC(C)=O)cc1", "maximal number": "inactive: 1"},
      {"molecule": "Cc1ccc2c(Cl)cc(Cl)c(O)c2n1", "maximal number": "inactive: 1"},
      {"molecule": "O=C(O)c1cc2cc(F)ccc2[nH]1", "maximal number": "inactive: 0"},
      {"molecule": "C=C[C@@](C)(O)CCC1C(=C)CCC2[C@@](C)(CO)CCC[C@]12C", "note": "(some centres not stated)", "maximal number": "inactive: 1"},
      {"molecule": "C[C@H](N[C@@H](CCc1ccccc1)C(=O)O)C(=O)N1CCC[C@H]1C(=O)O", "maximal number": "inactive: 1"},
      {"molecule": "COc1cc2c(N3CCN(C(=O)Nc4ccc(OC(C)C)cc4)CC3)ncnc2cc1OCCCN1CCCCC1", "maximal number": "inactive: 1"},
      {"molecule": "CC(=O)O[C@H]1C[C@@H](OC(C)=O)C(C)(C)[C@@H]2CC(=O)[C@]3(C)[C@H](CC[C@@]4(C)[C@H](c5ccoc5)OC(=O)[C@H]5O[C@]543)[C@@]12C", "maximal number": "inactive: 1"},
      {"molecule": "C[C@@H]1CC(=O)NN=C1c1ccc(NN=C(C#N)C#N)cc1", "maximal number": "inactive: 1"},
      {"molecule": "O=c1oc2c(O)c(O)cc3c(=O)oc4c(O)c(O)cc1c4c23", "maximal number": "inactive: 1"},
      {"molecule": "CCc1cccc2c3c([nH]c12)C(CC)(CC(=O)O)OCC3", "note": "(configuration not stated)", "maximal number": "inactive: 1"},
      {"molecule": "CC(=O)OCC(=O)[C@H]1CC[C@H]2[C@@H]3CCC4=CC(=O)CC[C@]4(C)[C@H]3CC[C@]12C", "maximal number": "inactive: 0.5"},
      {"molecule": "C=CC(C1=CC(=O)C(OC)=CC1=O)c1ccc(O)cc1", "note": "(configuration not stated)", "maximal number": "inactive: 1"},
      {"molecule": "COc1cc2c(cc1OC)C1(O)C(=O)c3ccc(O)c(C(=O)O)c3OC1CO2", "note": "(configuration not stated)", "maximal number": "inactive: 1"},
      {"molecule": "CC(C)Nc1ncccn1", "maximal number": "active: 2"},
      {"molecule": "CO[C@@]1(NC(=O)C2SC(=C(C(N)=O)C(=O)O)S2)C(=O)N2C(C(=O)O)=C(CSc3nnnn3C)CS[C@@H]21", "note": "(some centres not stated)", "maximal number": "inactive: 1"},
      {"molecule": "C/C1=C2/[N-][C@H]([C@H](CC(N)=O)[C@@]2(C)CCC(=O)NC[C@@H](C)OP(=O)([O-])O[C@H]2[C@@H](O)[C@@H](n3cnc4cc(C)c(C)cc43)O[C@@H]2CO)[C@]2(C)N=C(/C(C)=C3N=C(/C=C4N=C1[C@@H](CCC(N)=O)C\\4(C)C)[C@@H](CCC(N)=O)[C@]\\3(C)CC(N)=O)[C@@H](CCC(N)=O)[C@]2(C)CC(N)=O.[CH2-][C@H]1O[C@H](n2cnc3c(N)ncnc32)[C@@H](O)[C@H]1O.[Co+3]", "maximal number": "inactive: 1"}
    ]}
  ]
}
